For test [1], the target named is T1, GST-MKK4 (UniProt P45985).
T1 sequence (looked up): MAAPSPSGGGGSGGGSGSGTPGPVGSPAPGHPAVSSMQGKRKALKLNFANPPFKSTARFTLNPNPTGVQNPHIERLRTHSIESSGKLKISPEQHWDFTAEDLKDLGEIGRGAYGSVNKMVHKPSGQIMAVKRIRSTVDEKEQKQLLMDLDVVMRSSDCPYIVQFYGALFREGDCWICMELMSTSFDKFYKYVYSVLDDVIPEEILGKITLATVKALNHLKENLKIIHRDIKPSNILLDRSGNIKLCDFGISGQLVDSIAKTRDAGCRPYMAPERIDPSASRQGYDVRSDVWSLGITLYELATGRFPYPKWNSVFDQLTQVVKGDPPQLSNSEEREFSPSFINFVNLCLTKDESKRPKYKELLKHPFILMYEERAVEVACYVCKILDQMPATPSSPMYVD
As to the kind of experiment: MBP pull-down on amylose beads, Western blot. Background: A western blot detects proteins with antibodies after separation by electrophoresis.

By UniProt entry, the sequences of proteins in these tests, tags left out. Where a name states a change or a piece, a line headed by the entry shows the natural chain unless it says otherwise.
UniProt P32120: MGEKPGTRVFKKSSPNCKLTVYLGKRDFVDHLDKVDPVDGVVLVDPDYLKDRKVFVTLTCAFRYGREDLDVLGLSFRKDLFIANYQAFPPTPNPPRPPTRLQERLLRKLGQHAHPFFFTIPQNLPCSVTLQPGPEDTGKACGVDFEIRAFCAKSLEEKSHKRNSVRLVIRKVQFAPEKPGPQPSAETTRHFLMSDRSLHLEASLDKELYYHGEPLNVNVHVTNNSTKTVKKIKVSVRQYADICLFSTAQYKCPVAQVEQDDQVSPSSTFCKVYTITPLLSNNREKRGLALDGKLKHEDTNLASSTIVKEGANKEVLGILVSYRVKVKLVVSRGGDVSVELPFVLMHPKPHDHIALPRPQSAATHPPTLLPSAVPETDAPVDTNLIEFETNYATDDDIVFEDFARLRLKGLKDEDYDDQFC

For test [2], the target named is T1, GST-MKK4. As to the kind of experiment: MBP pull-down on amylose resin, purified proteins.

Results are given in words; binding and its absence hold for the method and conditions named. Binding seen in cells or lysates may run through a third protein. Some entries that bind do so weakly or less than the wild type. Sequences can lack the tags named with a protein.

As for “MBP-arrestin-3 (from UniProt P32120 1-420)”, the binding entry in the test with GST-MKK4 [1] and with GST-MKK4 [2] was “binds” each time.

The record behind these values is patent publication US20180236026A1.
